Results are percentages, as filed.
The record does not define 0% and 100%; most values in the screen are far below 50% and negative numbers occur (in some assays of this library far below -100).
Compounds were drawn at random from those tested, without regard to their results.

Protein sequences, listed by entry. Tags and fused reporters are not part of them.
UniProt E9BF75, entry or part of it: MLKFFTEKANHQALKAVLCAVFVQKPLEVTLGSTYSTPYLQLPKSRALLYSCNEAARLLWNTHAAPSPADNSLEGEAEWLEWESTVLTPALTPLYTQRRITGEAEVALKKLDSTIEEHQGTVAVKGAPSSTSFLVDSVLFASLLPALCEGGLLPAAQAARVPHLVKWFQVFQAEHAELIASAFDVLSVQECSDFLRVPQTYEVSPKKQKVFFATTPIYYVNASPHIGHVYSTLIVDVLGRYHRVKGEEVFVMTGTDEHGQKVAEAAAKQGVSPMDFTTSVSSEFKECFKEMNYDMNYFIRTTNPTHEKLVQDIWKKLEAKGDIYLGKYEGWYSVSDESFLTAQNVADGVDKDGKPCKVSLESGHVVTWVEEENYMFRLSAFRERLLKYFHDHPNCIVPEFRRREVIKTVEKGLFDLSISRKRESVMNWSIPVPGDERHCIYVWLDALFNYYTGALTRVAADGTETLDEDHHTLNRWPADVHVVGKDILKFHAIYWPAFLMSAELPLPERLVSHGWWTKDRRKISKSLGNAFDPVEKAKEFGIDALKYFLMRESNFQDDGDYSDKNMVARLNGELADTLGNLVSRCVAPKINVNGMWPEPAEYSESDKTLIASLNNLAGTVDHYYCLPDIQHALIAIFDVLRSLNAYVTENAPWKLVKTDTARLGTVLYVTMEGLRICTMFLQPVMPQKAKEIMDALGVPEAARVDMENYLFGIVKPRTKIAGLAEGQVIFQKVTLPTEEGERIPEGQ

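Methionyl-tRNA synthetase (putative), Leishmania donovani (UniProt E9BF75). Primary screen of methionyl-tRNA synthetase; the read-out is not stated. The test concentration is not given. The values are filed as inhibition. Of about 68,000 compounds tested this way, about 24 (0.035%) reached 50% or more in at least one test.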

| # | SMILES | inhibition |
|---|---|---|
| 1 | `COc1ccc(C[C@H]2CN(Cc3ccoc3)CC[C@H]2OC)cc1` | 13.74 |
| 2 | `COc1ccc(C)cc1C(=O)N1CCCC(n2nc(C)nc2C)C1` (stereo unspecified) | 15.49 |
| 3 | `NC(=O)c1cccc(CN2CCOC(Cn3cccn3)C2)c1` (stereo unspecified) | 7.357 |
| 4 | `COc1cccc(OCC2CCCN(C3CCN(C(C)=O)CC3)C2)c1` (stereo unspecified) | 10.51 |
| 5 | `Cn1nc(C2CCNCC2)c2c(C(=O)NC3CC3)cc(C3CC3)nc21` | 4 |
| 6 | `Cc1n[nH]cc1CNC1(c2ccc(Br)cc2)CC1` | 12.22 |
| 7 | `CNS(=O)(=O)c1cccc(CNc2ncccn2)c1` | 11.35 |
| 8 | `CCOC(=O)[C@@H]1[C@@H](OC)C(=O)N(C)C12CCN(C(=O)C(CC)CC)CC2` | 10 |
| 9 | `O=C(CCc1ccco1)N1CCC(Nc2cccnn2)CC1` | 12.78 |
| 10 | `CCN(C(=O)CN1CCC(c2n[nH]c(C3CC3)n2)CC1)C1CC1` | 19.35 |
| 11 | `CC(C)(C)CC(=O)N1C[C@@H]2C[C@H]1CN2` | -8.889 |
| 12 | `O=S(=O)(NC1CCCCC12OCCO2)c1cc(F)cc(F)c1` (stereo unspecified) | 19.42 |
| 13 | `Cc1cccc2c1cnn2CCCNC(=O)C(C)C` | 13.39 |
| 14 | `O=C1COC2(CCN(Cc3ccc(F)cc3)CC2)CN1` | 11.43 |
| 15 | `Cc1nonc1-c1nc(C(C)C)nn1-c1ccc2c(c1)OCO2` | 10.65 |
| 16 | `Cc1ncc(CNC(=O)N(C)C2CCN(c3ccccc3)C2=O)s1` (stereo unspecified) | 13.27 |
| 17 | `CCN1CCN(S(=O)(=O)c2cn(C(C)C)cn2)c2ccccc21` | 3.623 |
| 18 | `OCCNc1cc(-c2nccnc2N2CCCC2)c2cc[nH]c2n1` | 7.163 |
| 19 | `c1cnc(N2CCC3(CC2)CC(NCC2CC2)c2ccccc23)nc1` (stereo unspecified) | 1.038 |
| 20 | `COc1cnc(C2(O)CCN(C(=O)c3ccccn3)CC2)c(OC)n1` | 4.941 |
| 21 | `CCc1ncc2c(n1)CN(Cc1nc(-c3cccs3)no1)CC2` | 28.33 |
| 22 | `CCCN1CCC(Cc2noc(-c3cc4cccnc4nc3C)n2)CC1` | 21.49 |
| 23 | `COCCN(Cc1sccc1C)C(=O)COc1ccccc1O` | 4.802 |
| 24 | `CC(c1ccc(S(N)(=O)=O)cc1)N(C)C(=O)c1ccccc1I` (stereo unspecified) | -10.47 |
| 25 | `CCCn1cc(NC(=O)c2ccc(N(C)CC)cc2)ccc1=O` | 14.25 |
| 26 | `Cn1cc(-c2nc(CN3CCN(CCO)CC3)cs2)cn1` | 13.27 |
| 27 | `Cc1noc(-c2ccc(N3CCCC(C(N)=O)C3)nc2)n1` (stereo unspecified) | 5.245 |
| 28 | `COCC(C)NC(=O)CN1CCC(C)CC1` (stereo unspecified) | 9.172 |
| 29 | `Cc1ccc(OCCC(=O)N2CCN(c3cnccn3)CC2)cc1C` | 12.2 |
| 30 | `COCCN1C[C@@H]2COC[C@@H](CC(=O)NCc3cccnc3)[C@@H]2C1` | 9.89 |
| 31 | `CCc1cnc(CN(C)C(=O)NC2CCN(C)C2=O)s1` (stereo unspecified) | 8.362 |
| 32 | `CCC(CO)N(Cc1cccs1)C(=O)CNS(=O)(=O)c1cccs1` (stereo unspecified) | 14.58 |
| 33 | `CCc1ccc(C(=O)NCCNc2ncccn2)cc1` | -2.857 |
| 34 | `Cc1oc(CNC(=O)Cc2cccc(OC(F)F)c2)cc1C(=O)O` | 3.495 |
| 35 | `Cc1nc(C)n(CC2CN(Cc3cccnc3)CCO2)n1` (stereo unspecified) | 14.17 |
| 36 | `COc1ccc(CNC(=O)CCN2C[C@@H](C)[C@](O)(C3CC3)C2)cc1` | 6.859 |
| 37 | `Cc1n[nH]c(C)c1C1CCCN1C(=O)CNC(=O)C(C)(C)C` (stereo unspecified) | 5.419 |
| 38 | `CCCNc1nnc(S(=O)(=O)CCOCC)s1` | 13.26 |
| 39 | `COCc1noc(CN2CCC3(CC2)[C@H](O)C[C@@H]3OC)n1` | 20.1 |
| 40 | `CC1(c2nccs2)CCN(C(=O)CC2CCOCC2)CC1` | 14.06 |
| 41 | `Cc1ncsc1C(=O)OCCN1CCCCCC1=O` | 21.05 |
| 42 | `CCCN1C[C@H](NC(=O)c2ccccc2F)[C@@H](c2ccc(OC)cc2)C1` | 22.51 |
| 43 | `NC(=O)CSc1nccc(-c2ccc3c(c2)OCO3)n1` | 0.8108 |
| 44 | `COc1ccccc1N1CCN(C(=O)c2ccnc(N(C)C)c2)CC1` | 19.2 |
| 45 | `CN(C)CCNC(=O)c1cc2n(n1)CCN(C(=O)c1ccc[nH]1)C2` | 9.929 |
| 46 | `O=C(NCCc1cccs1)[C@]12COC[C@H]1CN(c1ncccn1)C2` | 13.45 |
| 47 | `COc1ccc(CNCC2CN(C3CC3)CCO2)cc1OC` (stereo unspecified) | 8.527 |
| 48 | `Oc1cc(C2CCCCN2Cc2cccs2)nc(-c2ccncc2)n1` (stereo unspecified) | 7.558 |
| 49 | `CC(C)(CO)Nc1cc(-c2cn[nH]c2)ncn1` | 11.41 |
| 50 | `Cc1ccc(CNC(=O)c2nc3c(n2C)CCN(c2ncccn2)C3)o1` | 7.625 |
| 51 | `c1ccc(CN2CC[C@@H]3O[C@H](COCc4ccncc4)CC[C@@H]32)nc1` | 10.8 |
| 52 | `COCCOc1ccccc1C(=O)NCCN(C)C(C)C` | 16.52 |
| 53 | `OC1(Cn2ccc3ncccc32)CCN(Cc2cccnc2)CC1` | 20.31 |
| 54 | `CCOc1nc2cnccc2n(CC(=O)NCc2ccco2)c1=O` | 7.887 |
| 55 | `Nc1nnc(CCNc2ncnc3c2CCN(C(=O)C2CC2)C3)s1` | 15.33 |
| 56 | `Cc1nc(CN(C)C2CCN(Cc3ccc(C(N)=O)cc3)C2)no1` (stereo unspecified) | 18.78 |
| 57 | `Cc1c(C(C)N)cnn1-c1ccccn1` (stereo unspecified) | 14.03 |
| 58 | `CC(=O)Nc1ncc(-c2ccc(C)cc2)[nH]1` | 17.39 |

Some entries from above, unchanged:

SMILES,inhibition
CC(=O)Nc1ncc(-c2ccc(C)cc2)[nH]1,17.39
c1ccc(CN2CC[C@@H]3O[C@H](COCc4ccncc4)CC[C@@H]32)nc1,10.8
COc1ccc(CNC(=O)CCN2C[C@@H](C)[C@](O)(C3CC3)C2)cc1,6.859
Cc1n[nH]c(C)c1C1CCCN1C(=O)CNC(=O)C(C)(C)C (stereo unspecified),5.419
c1cnc(N2CCC3(CC2)CC(NCC2CC2)c2ccccc23)nc1 (stereo unspecified),1.038

Measurements from “University of Dundee, Small-Polar-MMV Screening Library” (2021), ChEMBL document CHEMBL3988442.